Source: paper PMC12235220, “Cell‐Penetrating Peptide‐Based Triple Nanocomplex Enables Efficient Nuclear Gene Delivery in Chlamydomonas reinhardtii” (Biotechnology and Bioengineering, 2025)

Test system: pChlamy4 plasmid DNA
Assay: Electrophoretic mobility shift assay (EMSA) of nanocomplex formation with plasmid DNA
Format: binding
Settings: SV40/DNA ratios 0.1:1 to 20:1, 0.5 µg pChlamy4, 20 min, 1% agarose gel

Question: Which “Complexation between SV40 NLS peptide and plasmid DNA” value does the source give for “PKKKRKV [SV40, simian virus 40 nuclear localization signal peptide, Rhodamine B at the N-terminus]” here?
Answer: did not bind to plasmid DNA; also recorded: no complexation

Entries after “also recorded” stand apart in the source; their conditions may differ.
